# Screening data, single-dose tests

By UniProt entry, the sequences of proteins in these tests, tags left out.
UniProt P9WPC5, whole entry: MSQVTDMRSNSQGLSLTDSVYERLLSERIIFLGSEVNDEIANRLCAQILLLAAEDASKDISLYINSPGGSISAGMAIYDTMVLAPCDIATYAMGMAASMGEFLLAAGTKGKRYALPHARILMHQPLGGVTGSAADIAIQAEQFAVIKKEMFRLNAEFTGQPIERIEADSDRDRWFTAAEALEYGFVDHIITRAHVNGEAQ
UniProt P9WPC3, whole entry partner: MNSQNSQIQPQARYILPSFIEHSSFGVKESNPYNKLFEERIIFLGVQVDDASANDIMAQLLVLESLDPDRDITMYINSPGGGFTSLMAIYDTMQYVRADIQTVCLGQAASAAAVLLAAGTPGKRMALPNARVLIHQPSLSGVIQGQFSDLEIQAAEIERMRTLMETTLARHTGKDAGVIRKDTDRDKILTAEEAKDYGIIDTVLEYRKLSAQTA

Values are the deposited “Percent Effect”, in %.
The record does not define 0% and 100%; most values in the screen are far below 50% and negative numbers occur (in some assays of this library far below -100).
Compounds were drawn at random from those tested, without regard to their results.
Two or more numbers in one place are separate tests of the same structure; such repeats can differ widely.
A dash means the value is not listed here; it may have been measured.

Toxoplasma: 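Assay of Toxoplasma gondii numbers, read through their beta-galactosidase reporter with a colour substrate. Concentration: 10 µM. Higher reads as fewer parasites (inferred from which compounds were picked for retests). About 67,000 compounds were tested under these conditions; 0.38% (about 260) showed 50% or more at least once.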
ClpP1P2: 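Protease assay of ClpP1P2, read by the AMC dye that it sets free. Target: ClpP1P2, Mycobacterium tuberculosis (UniProt P9WPC5 and UniProt P9WPC3). Compounds at 50 µM. Direction is inferred from only a few compounds that gave an IC50; most scored high, so higher reads as stronger inhibition. Most other retested compounds had strongly negative values. About 69,000 compounds were tested under these conditions; 0.015% (about 10) showed 50% or more at least once.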
Leishmania in macrophages: 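Cell assay of Leishmania donovani living inside macrophages; the read-out is not stated. Concentration: 30 µM. The record gives no direction; compounds that gave an IC50 in retests scored well above the rest, so higher reads as stronger inhibition. Size under these conditions: about 69,000 compounds, about 1,000 of them at 50% or above in at least one test.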
T. brucei: 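Whole-parasite assay of Trypanosoma brucei over 72 hours; the read-out is not stated. Concentration: 30 µM. Direction is inferred from retests: higher values go with stronger inhibition. Values scatter widely below zero; nearly all retest evidence comes from the higher of the two concentrations used. Of about 64,000 compounds tested this way, about 940 (1.5%) reached 50% or more in at least one test.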

| Compound | Toxoplasma | ClpP1P2 | Leishmania in macrophages | T. brucei |
|---|---|---|---|---|
| `CC(C)=CCN1C(=O)[C@H]2CC[C@@H]1CN(C(=O)CCc1nc(Cl)n[nH]1)C2` | - | -14.06 | - | - |
| `Cc1cc(C(=O)N2CCCC(N3CCNC3=O)C2)nn1C(C)(C)C` (stereo not drawn) | -5.837 | -2.284 | -7.758 | -50.34 |
| `[H][C@@]12CCN(Cc3ccccn3)C[C@]1([H])[C@@H](CNc1ncccn1)OC2` | 2.671 | - | -10.78 | 33.26 |
| `CC(C)COc1cncc(N2CCCC(CC(N)=O)C2)n1` (stereo not drawn) | 8.065 | -25.75 | 36.04 | -3.563 |
| `CCN(CC1CCOC1)C(=O)NCc1nnc2n1CCC2` (stereo not drawn) | 18.24 | -1.176 | 26.03 | -35.03 |
| `CN(C)c1nc(NCCc2ccccn2)ncc1F` | -17.02 | -13.86 | 22.5 | -46.19 |
| `Cn1nnc2c1C(COCc1ccccn1)CN(C(=O)c1cccs1)C2.O=C(O)C(F)(F)F` (stereo not drawn) | -3.221 | - | 6.855 | -20.85 |
| `NC(=O)CN(CC(N)=O)Cc1cccc(Oc2ccccc2)c1` | 3.686 | 0.5468 | 14.64 | -52.26 |
| `CCNC(=O)c1ccnc(NCC2COc3cc(OC)ccc3C2)c1` (stereo not drawn) | -4.841 | -16.89 | -18.87 | -2.759 |
| `CC(C)n1cnnc1Cn1ccc2ncccc2c1=O` | -0.6698 | 8.701 | 7.675 | -29.79 |
| `COc1cccc(OC)c1CC(=O)NC(C#N)c1ccsc1` (stereo not drawn) | 6.116 | -18.96 | 25.71 | 1.567 |
| `N#Cc1cc(F)c(N2CCC(NS(=O)(=O)c3cccs3)CC2)c(F)c1` | -16.46 | -1.789 | -128.3 | -21.2 |
| `CC(O)CN1CCN(Cc2coc(-c3cccc(Cl)c3)n2)CC1` (stereo not drawn) | 1.594 | 17.9 | -3.869 | -76.19 |
| `[H][C@]12CNC[C@@]1(C(=O)NCc1snnc1C)CN(C(=O)COC)C2` | -25.47 | - | 13.18 | -14.89 |
| `O=C(NC1CCc2[nH]c(=O)ccc2C1)C1CCOCC1` (stereo not drawn) | 0.378 | -1.248 | -4.443 & -9.924 | -57.68 |
| `Cc1nc2c(c(=O)n1C)CCN(Cc1cc3cc[nH]c3cn1)CC2` | 6.874 | -2.389 | 7.967 | -37.68 |
| `COC(=O)c1ccc(C(=O)NCC(O)c2cccn2C)cc1` (stereo not drawn) | -16.79 | -7.27 | -12.25 | -29.49 |
| `Cc1ncc(S(C)(=O)=O)c(N(C)CCCc2cnn(C)c2)n1` | 2.403 | 21.23 | 22.09 | 1.229 |
| `Cc1cc(C(=O)N2C[C@H]3CC[C@@H]2CN(Cc2ccccn2)C3)nc(N)n1` | - | 3.683 | - | - |
| `CCOC(=O)c1coc(N2CCN(Cc3cc(C)cc(C)c3)C(=O)C2)n1` | 2.736 | -8.115 | -6.799 | -80.08 |
| `CSc1cc2c(cc1NC(=O)N(C)Cc1ccncc1)OCCO2` | -3.093 | -8.354 | -0.09811 | -70.58 |
| `CC(C)(NC(=O)CCc1ccco1)c1ccc2c(c1)OCCO2` | 19.4 | -14.19 | -10.6 | -1.824 |
| `Cc1ncncc1C(=O)N1CCCC1c1c(C)nn(C)c1Cl` (stereo not drawn) | -12.61 | -11.96 | -3.179 | 0.8531 |
| `CCN1CC2(CNCCN(C(=O)Nc3ccccc3)C2)CC1=O` (stereo not drawn) | - | -1.48 | - | - |
| `CNC(=O)c1cnc2n1CCN(C(=O)Cc1ccccn1)C2` | -2.69 | 3.746 | 9.649 | -33.41 |
| `Cc1cnn(CCNCc2nnc(-c3ccccc3)o2)c1` | 8.648 | -16.25 | 9.718 | - |
| `COCC1CN(C(=O)COc2ccccc2)Cc2ncn(C)c21` (stereo not drawn) | - | 2.475 | - | - |
| `CCN(C)S(=O)(=O)N1CCCC(c2nc(-c3ccccc3)c[nH]2)C1` (stereo not drawn) | -10.59 | 16.22 | -2.502 | -43.92 |
| `O=C(C1CCN(c2nc3nc[nH]c(=O)c3s2)CC1)N1CCCCC1` | - | -2.66 | 14.23 | 17.4 |
| `CC(=O)N1CCC(n2nccc2-c2cnc(N3CCCC3)nc2)CC1` | 0.8467 | -2.409 | -3.128 & -2.979 | -2.067 |
| `[H][C@@]12CCCO[C@]1([H])[C@H](NC(=O)CC1CC1)CN(C(=O)c1ccsc1)C2` | -3.682 | - | 12.99 | -46.01 |
| `Cc1cc(CN2C[C@@H]3COC[C@]3(CNC(=O)c3ccco3)C2)no1` | - | -7.301 | - | - |
| `NC(=O)C1CCN(C(=O)Cc2ccc(Cl)c(Cl)c2)CC1` | 0.7521 | 7.201 | 12.37 | -58.85 |
| `O=c1[nH]c2nc(N3CCCCCC3)ncc2c(=O)n1-c1cccc(F)c1` | -9.612 | 1.68 | 2.813 | -23.65 |
| `CO[C@@H]1CCC[C@@H](N(C)C(=O)c2cc(F)ccc2F)[C@H]1O` | - | 6.018 | 16.1 | - |
| `CSc1ccc(S(=O)(=O)NC2CNC(=O)C2)cc1` (stereo not drawn) | 1.925 | -14.43 | 6.024 | -27.53 |
| `N#Cc1ccc(N2CCC(c3nc(C(F)(F)F)c[nH]3)CC2)nc1` | -4.327 | -2.072 | -18.36 | -110.5 |
| `CC(O)CN1CCC(CN(C)C(=O)NC2CC2)CC1` (stereo not drawn) | 3.488 | 10.2 | 29.21 | -4.364 |
| `Cc1ccc(N2CCC3(CCN(C(=O)C4CCOC4)CC3)CC2)nn1` (stereo not drawn) | -11.53 | -0.4571 | 11.39 | - |
| `COc1c(CNCC(c2cccc(F)c2)N(C)C)c(C(C)C)nn1C` (stereo not drawn) | 16.13 | 1.162 | 17.04 | 7.295 |
| `CCC(C)c1noc(C2CCN(C(=O)c3ccccn3)CC2)n1` (stereo not drawn) | 8.6 | -4.496 | -61.76 | - |
| `CN(C)S(=O)(=O)c1ccc(CN2CCCC2CO)o1` (stereo not drawn) | -4.08 | 2.756 | -0.6652 | -2.593 |
| `O=C(NCc1cc[nH]n1)NCC(O)c1ccccc1F` (stereo not drawn) | -52.22 | -23.01 | 20.81 | 10.6 |
| `COC(=O)NCC1CCC2(CCNCC2)O1.Cl` (stereo not drawn) | -19.28 | - | 0.9413 | -14.83 |
| `CCc1cnc(N2CCC3(CC2)CCN(c2cnn(C)c2)C3=O)nc1` | -1.78 | -1.522 | -19.82 | -74.84 |
| `COc1cccc(CNC2CCSC2)c1OC` (stereo not drawn) | 1.475 | -1.277 | 10.66 | -5.857 |
| `CCCc1cc(C(=O)N2CCCC(n3ccnc3C)C2)[nH]n1` (stereo not drawn) | - | 1.211 | 18 | -6.229 |
| `CN1CCC(Cc2noc(-c3cccc(Oc4ncccn4)c3)n2)CC1` | -2.189 | -4.301 | 8.575 | 4.077 |
| `O=C(Cc1c[nH]c(=O)[nH]c1=O)N1CCCCC1CCc1ccccc1` (stereo not drawn) | -10.96 | 7.117 | 6.517 | -7.99 |
| `CC(O)C(=O)N1CCC(c2nccn2Cc2cscn2)CC1` (stereo not drawn) | 20.36 | -5.244 | -10.54 | -24.83 |
| `O=C(c1ccc2nccn2c1)N(CCO)Cc1ccccc1F` | 7.55 | 4.339 | 31.84 | 3.104 |
| `CCCNC(=O)c1ccc2c(OC)n(C)nc2c1` | 14.03 | -33.15 | 6.512 | 16.55 |
| `COc1ccc(CNC(Cc2ccsc2)c2ccc(C)cn2)cc1OC` (stereo not drawn) | - | -12.85 | - | - |
| `Cc1ccc(CNCCS(=O)(=O)N2CCOCC2)cc1C` | 1.006 | -7.359 | 26.66 | -55.34 |
| `CC(C)(C)c1ncc(C(=O)NCCNC(=O)c2cccs2)s1` | 23.04 | -14.65 | 25.09 | -6.093 |
| `CN(Cc1noc(C2CC2)n1)C1CCN(Cc2ccc(F)c(F)c2)C1` (stereo not drawn) | 1.098 | -25.2 | 5.657 | - |
| `Cc1ccc(C(=O)N2C[C@H]3CCC[C@@]3(COCc3ccncc3)C2)cn1` | - | 13.62 | - | - |

5 of the entries, repeated:

With COCC1CN(C(=O)COc2ccccc2)Cc2ncn(C)c21 (stereo not drawn) the screen gave ClpP1P2: 2.475%.
With CC(O)CN1CCN(Cc2coc(-c3cccc(Cl)c3)n2)CC1 (stereo not drawn) the screen gave Toxoplasma: 1.594%; ClpP1P2: 17.9%; Leishmania in macrophages: -3.869%; T. brucei: -76.19%.
With COC(=O)NCC1CCC2(CCNCC2)O1.Cl (stereo not drawn) the screen gave Toxoplasma: -19.28%; Leishmania in macrophages: 0.9413%; T. brucei: -14.83%.
With CN(C)c1nc(NCCc2ccccn2)ncc1F the screen gave Toxoplasma: -17.02%; ClpP1P2: -13.86%; Leishmania in macrophages: 22.5%; T. brucei: -46.19%.
With [H][C@@]12CCCO[C@]1([H])[C@H](NC(=O)CC1CC1)CN(C(=O)c1ccsc1)C2 the screen gave Toxoplasma: -3.682%; Leishmania in macrophages: 12.99%; T. brucei: -46.01%.

The values are deposited in ChEMBL (CHEMBL3988442, “University of Dundee, Small-Polar-MMV Screening Library” (2021)).